66 compounds from the supplement of paper PMC3047530 can be followed below.

Structures are written as SMILES. This is one part of the list. Repeats are few or missing, and single values can be far off.

For the experiment, the system named is Geomyces destructans. The experiment is described as follows: growth inhibition relative to DMSO control; higher = stronger growth inhibition. The following applies: 10 µM; 15 °C; incubation time 10 days.
In the case of `Nc1nc(=O)c2c([nH]1)NCC(CNc1ccc(C(=O)N[C@@H](CCC(=O)O)C(=O)O)cc1)N2C=O` (stereo partly specified), the growth inhibition is -9.23%.

As for `COc1ccc2c(c1)[C@@]1(C)CCC(=O)C[C@@H]1CC2` [5alpha-12-METHOXY-4,4-BISNOR-8,11,13-PODOCARPATRIEN-3-ONE], the growth inhibition was -3.64%.

Turning to `C=CCc1ccccc1OCC(O)CNC(C)C` (stereo unspecified), the growth inhibition is -6.89%.

Regarding `NC[C@H]1CC[C@H](C(=O)O)CC1`, the growth inhibition is -16.8%.

Regarding `Oc1c(Cl)cc(Cl)cc1Sc1cc(Cl)cc(Cl)c1O`, the growth inhibition was 22.3%.

For `CCCCOc1ccc(CC(=O)NO)cc1`, the growth inhibition was -7.02%.

For the compound `CC(=O)OC(C)C[N+](C)(C)C` (stereo unspecified), the growth inhibition was -6.54%.

As for `CCCCC[C@H](CC(=O)NO)C(=O)N[C@H](C(=O)N1CCC[C@H]1CO)C(C)C`, the growth inhibition is -24.6%.

For `Cc1ccc(O)c([C@H](CCN(C(C)C)C(C)C)c2ccccc2)c1`, the growth inhibition is -4.34%.

For the compound `O=C(O)c1cc(=O)c2c(OCC(O)COc3cccc4oc(C(=O)O)cc(=O)c34)cccc2o1`, the growth inhibition was -2.78%.

Turning to `CC(C)CCC[C@@H](C)[C@H]1CC[C@H]2[C@@H]3CC=C4C[C@@H](O)CC[C@]4(C)[C@H]3CC[C@]12C`, the growth inhibition came out at 0.0946%.

In the case of `CCCCCC1C(=O)CCC1CC(=O)O` (stereo unspecified), the growth inhibition is -2.53%.

With `Nc1ccn([C@@H]2O[C@H](CO)[C@@H](O)[C@H]2O)c(=O)n1`, the growth inhibition was -7.53%.

As for `CN(C)CCC(c1ccccc1)c1ccccn1` (stereo unspecified), the growth inhibition was -32.2%.

Take `C=CC(C1=CC(=O)C(OC)=CC1=O)c1ccc(O)cc1` (stereo unspecified): the growth inhibition worked out at 0.617%.

`COc1cc(O)c2c(=O)c(-c3ccc(O)cc3)coc2c1`: the growth inhibition was -9.03%.

Turning to `COC(=O)[C@H](O)[C@H]1C(C)(C)[C@H](OC(C)=O)[C@@H]2CC3=C4CC(=O)O[C@@H](c5ccoc5)[C@]4(C)CC[C@@H]3[C@@]1(C)C2=O`, the growth inhibition is -15.2%.

Regarding `O=C(O)c1cc(O)c(O)c(O)c1`, the growth inhibition worked out at 0.708%.

On to `CC(C)=CCc1c(O)cc(C)oc1=O`, for which the growth inhibition worked out at 2.44%.

For `CCN(CC)C(=O)N1CCN(C)CC1`, the growth inhibition is -7.34%.

`NCCCCCN`: the growth inhibition is -3.39%.

With `CCN(CCCc1ccccc1)CCCc1ccccc1`, the growth inhibition was -43.7%.

`CCOC(=O)c1c(C)cc(O)c(C)c1O`: the growth inhibition is 2.75%.

For `CC[C@]1(O)C[C@@H]2CN(CCc3c([nH]c4ccccc34)[C@@](C(=O)OC)(c3cc4c(cc3OC)N(C)[C@H]3[C@@](O)(C(=O)OC)[C@H](OC(C)=O)[C@]5(CC)C=CCN6CC[C@]43[C@@H]65)C2)C1`, the growth inhibition is 3.2%.

Regarding `C[C@H]1CC[C@@H](C(C)(C)O)CC2=C1CC[C@@H]2C`, the growth inhibition came out at 3.38%.

With `Oc1cc(O)c2c(c1)O[C@H](c1cc(O)c(O)c(O)c1)[C@H](O)[C@H]2c1c(O)cc(O)c2c1O[C@H](c1cc(O)c(O)c(O)c1)[C@H](O)[C@H]2c1c(O)cc(O)c2c1O[C@H](c1cc(O)c(O)c(O)c1)[C@H](O)C2`, the growth inhibition was -5.26%.

Consider `Clc1ccc(COC(Cn2ccnc2)c2ccc(Cl)cc2Cl)cc1` (stereo unspecified), for which the growth inhibition stood at 75.2%.

In the case of `Clc1ccccc1C(c1ccccc1)(c1ccccc1)n1ccnc1`, the growth inhibition is -9.69%.

Consider `NC(=O)NO`, for which the growth inhibition was -1.14%.

In the case of `CN1CCC[C@H]1c1cccnc1`, the growth inhibition is -15.5%.

Consider `CCCC(C(=O)OCCN(CC)CC)(c1ccccc1)c1ccccc1`, for which the growth inhibition is -1.74%.

As for `COc1c(OC)c2occc2c2oc(=O)ccc12`, the growth inhibition is -5.97%.

Regarding `Cn1c(=O)c2c(ncn2CC(O)CO)n(C)c1=O` (stereo unspecified), the growth inhibition was -3.72%.

For `CCCc1nc(C(C)(C)O)c(C(=O)OCc2oc(=O)oc2C)n1Cc1ccc(-c2ccccc2-c2nnn[nH]2)cc1`, the growth inhibition was -27.5%.

Turning to `CC(=O)OC1CC(OC(C)=O)C2(C)C(CC(OC(C)=O)C3(C)C4=CC(=O)OC(=O)C4(C)CCC32)C1(C)C` (stereo unspecified), the growth inhibition is 4.26%.

Take `Nc1nccs1`: the growth inhibition was -15.6%.

Regarding `C[C@@H]1CC2C3C[C@H](F)C4=CC(=O)C=C[C@]4(C)[C@@]3(F)[C@@H](O)C[C@]2(C)[C@@]1(O)C(=O)COC(=O)C(C)(C)C` (stereo partly specified), the growth inhibition came to 2.38%.

`CNC1(C)C2CCC(C2)C1(C)C` (stereo unspecified): the growth inhibition was -10.6%.

As to `CCCCCCCCCCCCCCCC[N+](C)(C)C`, the growth inhibition is -18.8%.

`OC[C@H]1O[C@@H](O[C@H]2[C@H](O)[C@@H](O)[C@@H](O)O[C@@H]2CO)[C@H](O)[C@@H](O)[C@@H]1O`: the growth inhibition was -8.87%.

`CC1=CCCC(C)=CCC(C)(C)C=CC1` [HUMULENE (alpha)]: the growth inhibition was -2.67%.

Take `CC1=C(C(=O)O)N2C(=O)[C@@H](NC(=O)[C@H](N)c3ccc(O)cc3)[C@H]2SC1`: the growth inhibition worked out at 10.3%.

With `COc1cc(C)c2c(=O)cc(-c3ccccc3)oc2c1`, the growth inhibition is -28.1%.

Turning to `Nc1ccc(S(N)(=O)=O)cc1`, the growth inhibition is -12.5%.

As to `Nc1ncnc2c1ncn2[C@H]1C[C@H](O)[C@@H](CO)O1`, the growth inhibition is -14.7%.

As to `CCOc1nc2cccc(C(=O)OC(C)OC(=O)OC3CCCCC3)c2n1Cc1ccc(-c2ccccc2-c2nn[nH]n2)cc1` (stereo unspecified), the growth inhibition was 3.19%.

On to `CC(CCc1ccc(O)cc1)NCCc1ccc(O)c(O)c1` (stereo unspecified), for which the growth inhibition is -10.8%.

In the case of `COc1ccc([C@H]2Oc3cc(OC)cc(OC)c3C[C@H]2O)cc1`, the growth inhibition was 2.75%.

With `CC(=O)O[C@H](CC(=O)[O-])C[N+](C)(C)C`, the growth inhibition is -3.63%.

For the compound `COc1ccc2c(c1)OCC(Cc1ccc(OC)c(OC)c1)C2=O` (stereo unspecified), the growth inhibition was 3.4%.

On to `Cc1cc(O)cc(=O)o1`, for which the growth inhibition came out at 1.61%.

On to `CC(=O)O[C@H]1CC[C@]2(C)[C@H]3CC=C4[C@@H]5CC(C)(C)CC[C@]5(C(=O)O)CC[C@@]4(C)[C@]3(C)CC[C@H]2C1(C)C`, for which the growth inhibition is -7.12%.

Regarding `S=P(N1CC1)(N1CC1)N1CC1`, the growth inhibition is -18.6%.

As to `COc1cc(N)c(Cl)cc1C(=O)NC1CCN(Cc2ccccc2)CC1`, the growth inhibition is -2.21%.

`CC(C)[C@@H]1CC[C@@H](C)C[C@H]1OC(=O)c1ccccc1`: the growth inhibition is -1.42%.

As to `CCCOc1ccc2nc(NC(=O)OC)[nH]c2c1`, the growth inhibition is -13.8%.

For the compound `CCCCOc1ccc(OCCCN2CCOCC2)cc1`, the growth inhibition is -30.5%.

In the case of `CC1CCc2cc(F)cc3c(=O)c(C(=O)O)cn1c23` (stereo unspecified), the growth inhibition is -6.72%.

Consider `COc1ccccc1OCCNCC(O)COc1cccc2[nH]c3ccccc3c12` (stereo unspecified), for which the growth inhibition was -20.1%.

Turning to `COc1cc(-c2coc3cc(OCc4ccccc4)c(OC)c(O)c3c2=O)cc(O)c1OC`, the growth inhibition was -8.5%.

As for `CC(C)[C@H]1CC[C@H](C(=O)N[C@H](Cc2ccccc2)C(=O)O)CC1`, the growth inhibition was -28%.

Turning to `COC(=O)/C(=C1/OC(=O)C(c2ccccc2)=C1O)c1ccccc1`, the growth inhibition is -2.36%.

As for `CC1OC1P(=O)(O)O` (stereo unspecified), the growth inhibition is -3.47%.

With `COc1c(O)cc2c(c1O)[C@@H]1O[C@H](CO)[C@@H](O)[C@H](O)[C@H]1OC2=O`, the growth inhibition was 2.52%.

For the compound `CC(=O)Oc1cccc(C(=O)O)c1OC(C)=O`, the growth inhibition is -6.21%.

Take `COC(=O)[C@@H]1OC(=O)C2OC23[C@@]1(C)CCC1[C@]2(C)C(C[C@@H](O)[C@]13C)C(C)(C)[C@H](OC(C)=O)C[C@@H]2OC(C)=O` (stereo partly specified): the growth inhibition is -2.85%.
